Assay [1] concerns the target Gal‐3, endogenous in mouse (mouse (endogenous in peritoneal lavage cells and lymph nodes)) (UniProt P16110). In words: proximity ligation; antibody-based PLA (Duolink) on cells from mouse peritoneal lavages after injection of PBS or thioglycolate.
Assay [2] shares this target. Kind of assay: proximity ligation; antibody-based PLA (Duolink) on frozen sections of lymph nodes from WT and CXCL12−/− mice.

The chains behind the UniProt entries cited, without tags or fusion partners. Residues count along the entry.
UniProt P16110: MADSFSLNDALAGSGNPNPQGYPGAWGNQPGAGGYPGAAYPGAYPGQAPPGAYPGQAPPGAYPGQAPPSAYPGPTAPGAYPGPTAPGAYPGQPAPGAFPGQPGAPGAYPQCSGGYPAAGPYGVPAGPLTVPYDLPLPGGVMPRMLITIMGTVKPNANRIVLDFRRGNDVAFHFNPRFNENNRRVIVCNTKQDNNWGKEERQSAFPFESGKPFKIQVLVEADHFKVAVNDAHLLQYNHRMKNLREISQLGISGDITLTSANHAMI
UniProt P40224, residues 22-93: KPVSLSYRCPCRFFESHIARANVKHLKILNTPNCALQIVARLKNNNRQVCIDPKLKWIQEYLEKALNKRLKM

These are yes or no findings as the source states them, for the method shown. Binding seen in cells or lysates may run through a third protein. Some binding calls cover weakened binding; strength is not graded here.

For the substance “CXCL12, endogenous in mouse (from UniProt P40224 22-93) (ligand)”, the binding result in assay [1] and in assay [2] was “binds” each time.

For the origin of these results see article PMC7132340.
